# Values from PubChem BioAssay AID1224830 (NIAID, 2016).
# Purpose: 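Host factors that control LPS-induced TNF expression in human macrophages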 (primary screen)
# Cells: human THP-1 monocytic leukaemia cells, TNF dual-luciferase reporter clone, PMA-differentiated to macrophage-like cells
# Knock-down reagent: siRNA pool against human genes, 50 nM
# Time to read-out: LPS for 4 h, given about 3 days after siRNA transfection
# Challenge: bacterial LPS (TLR4 ligand), 10 ng/ml
# Measurement: 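Ratio of firefly to renilla light, scaled to the plate median and expressed as a robust z-score per replicate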
# Scale: TNF reporter robust z-score: higher = stronger TNF reporter response to LPS
# Active means: 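a well is active when its z-score exceeds 2.8 or falls below -1.5; control wells carry no call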
# Here is a random part of about 18,000 deposited reagents. About 2,900 of them (16%) were called active. 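Calls are made per well; low scores hint the gene aids the LPS response, high scores that it dampens it.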 The numbers tell different reagents against one gene apart. Repeated entries: four replicate wells of each siRNA pool. No sequences are given here.
gene symbol,pool no.,TNF reporter robust z-score,activity call
FBXO40 (F-box protein 40),1,-1.44,inactive
FBXO40 (F-box protein 40),1,1.31,inactive
FBXO40 (F-box protein 40),1,-0.97,inactive
FBXO40 (F-box protein 40),1,1.39,inactive
WNT8A (Wnt family member 8A),1,-0.68,inactive
WNT8A (Wnt family member 8A),1,0.35,inactive
WNT8A (Wnt family member 8A),1,1.18,inactive
WNT8A (Wnt family member 8A),1,0.95,inactive
SLC1A7,1,-0.56,inactive
SLC1A7,1,6.59,active
SLC1A7,1,0.05,inactive
SLC1A7,1,-1.82,active
RIN2 (Ras and Rab interactor 2),1,-0.59,inactive
RIN2 (Ras and Rab interactor 2),1,-0.11,inactive
RIN2 (Ras and Rab interactor 2),1,0.1,inactive
RIN2 (Ras and Rab interactor 2),1,-0.43,inactive
KRTAP19-3 (keratin associated protein 19-3),1,-1,inactive
KRTAP19-3 (keratin associated protein 19-3),1,-0.85,inactive
KRTAP19-3 (keratin associated protein 19-3),1,-1.03,inactive
KRTAP19-3 (keratin associated protein 19-3),1,-1.62,active
GDAP2 (ganglioside induced differentiation associated protein 2),1,-0.01,inactive
GDAP2 (ganglioside induced differentiation associated protein 2),1,-0.66,inactive
GDAP2 (ganglioside induced differentiation associated protein 2),1,-0.96,inactive
GDAP2 (ganglioside induced differentiation associated protein 2),1,-0.06,inactive
TRAF3IP3 (TRAF3 interacting protein 3),1,,inactive
TRAF3IP3 (TRAF3 interacting protein 3),1,-1.18,inactive
TRAF3IP3 (TRAF3 interacting protein 3),1,-0.98,inactive
TRAF3IP3 (TRAF3 interacting protein 3),1,-1.15,inactive
TRAF3IP3 (TRAF3 interacting protein 3),1,-0.97,inactive
IPPK (inositol-pentakisphosphate 2-kinase),1,-0.27,inactive
IPPK (inositol-pentakisphosphate 2-kinase),1,-0.69,inactive
IPPK (inositol-pentakisphosphate 2-kinase),1,0.98,inactive
IPPK (inositol-pentakisphosphate 2-kinase),1,0.85,inactive
GBP5 (guanylate binding protein 5),1,0.39,inactive
GBP5 (guanylate binding protein 5),1,1.82,inactive
GBP5 (guanylate binding protein 5),1,-0.08,inactive
GBP5 (guanylate binding protein 5),1,2.33,inactive
MEN1 (menin 1),1,-0.29,inactive
MEN1 (menin 1),1,-0.41,inactive
MEN1 (menin 1),1,-0.94,inactive
MEN1 (menin 1),1,-0.31,inactive
C22orf39 (chromosome 22 open reading frame 39),1,0.26,inactive
C22orf39 (chromosome 22 open reading frame 39),1,0.4,inactive
C22orf39 (chromosome 22 open reading frame 39),1,1.35,inactive
C22orf39 (chromosome 22 open reading frame 39),1,0.92,inactive
EIF3A (eukaryotic translation initiation factor 3 subunit A),1,-0.99,inactive
EIF3A (eukaryotic translation initiation factor 3 subunit A),1,-1.44,inactive
EIF3A (eukaryotic translation initiation factor 3 subunit A),1,-1.45,inactive
EIF3A (eukaryotic translation initiation factor 3 subunit A),1,-1.48,inactive
OTOF (otoferlin),1,1.79,inactive
OTOF (otoferlin),1,1.55,inactive
OTOF (otoferlin),1,1.25,inactive
OTOF (otoferlin),1,2.55,inactive

Called active, among the entries above:
gene symbol,pool no.,TNF reporter robust z-score,activity call
SLC1A7,1,6.59,active
SLC1A7,1,-1.82,active
KRTAP19-3 (keratin associated protein 19-3),1,-1.62,active

Further entries follow:
gene symbol,pool no.,TNF reporter robust z-score,activity call
NETO1 (neuropilin and tolloid like 1),1,-0.65,inactive
NETO1 (neuropilin and tolloid like 1),1,-0.08,inactive
NETO1 (neuropilin and tolloid like 1),1,-0.89,inactive
NETO1 (neuropilin and tolloid like 1),1,0.01,inactive
GPR45 (G protein-coupled receptor 45),1,-0.4,inactive
GPR45 (G protein-coupled receptor 45),1,0.02,inactive
GPR45 (G protein-coupled receptor 45),1,-0.73,inactive
GPR45 (G protein-coupled receptor 45),1,-0.03,inactive
STPG2 (sperm tail PG-rich repeat containing 2),1,-0.78,inactive
STPG2 (sperm tail PG-rich repeat containing 2),1,-0.63,inactive
STPG2 (sperm tail PG-rich repeat containing 2),1,-1.48,inactive
STPG2 (sperm tail PG-rich repeat containing 2),1,-0.25,inactive
PTGDR (prostaglandin D2 receptor),1,0.58,inactive
PTGDR (prostaglandin D2 receptor),1,1.24,inactive
PTGDR (prostaglandin D2 receptor),1,0.63,inactive
PTGDR (prostaglandin D2 receptor),1,0.64,inactive
"NUDC (nuclear distribution C, dynein complex regulator)",1,0.29,inactive
"NUDC (nuclear distribution C, dynein complex regulator)",1,-0.16,inactive
"NUDC (nuclear distribution C, dynein complex regulator)",1,-0.08,inactive
"NUDC (nuclear distribution C, dynein complex regulator)",1,-0.1,inactive
C19orf12 (chromosome 19 open reading frame 12),1,-0.4,inactive
C19orf12 (chromosome 19 open reading frame 12),1,0.19,inactive
C19orf12 (chromosome 19 open reading frame 12),1,0.61,inactive
C19orf12 (chromosome 19 open reading frame 12),1,0.8,inactive
RHOXF1 (Rhox homeobox family member 1),1,-0.24,inactive
RHOXF1 (Rhox homeobox family member 1),1,0.21,inactive
RHOXF1 (Rhox homeobox family member 1),1,0.05,inactive
RHOXF1 (Rhox homeobox family member 1),1,0.12,inactive
"CDC37L1 (cell division cycle 37 like 1, HSP90 cochaperone)",1,1.79,inactive
"CDC37L1 (cell division cycle 37 like 1, HSP90 cochaperone)",1,1.89,inactive
"CDC37L1 (cell division cycle 37 like 1, HSP90 cochaperone)",1,0.86,inactive
"CDC37L1 (cell division cycle 37 like 1, HSP90 cochaperone)",1,2.05,inactive
ZBED4 (zinc finger BED-type containing 4),1,-0.47,inactive
ZBED4 (zinc finger BED-type containing 4),1,0.76,inactive
ZBED4 (zinc finger BED-type containing 4),1,-0.35,inactive
ZBED4 (zinc finger BED-type containing 4),1,-0.15,inactive
DPPA2 (developmental pluripotency associated 2),1,-0.4,inactive
DPPA2 (developmental pluripotency associated 2),1,0,inactive
DPPA2 (developmental pluripotency associated 2),1,-0.56,inactive
DPPA2 (developmental pluripotency associated 2),1,-0.2,inactive
MIPOL1 (mirror-image polydactyly 1),1,-0.73,inactive
MIPOL1 (mirror-image polydactyly 1),1,-0.49,inactive
MIPOL1 (mirror-image polydactyly 1),1,-0.32,inactive
MIPOL1 (mirror-image polydactyly 1),1,0.94,inactive
SLC25A3,1,-1.08,inactive
SLC25A3,1,-0.28,inactive
SLC25A3,1,-0.13,inactive
SLC25A3,1,-0.9,inactive
CFAP47 (cilia and flagella associated protein 47),1,1.34,inactive
CFAP47 (cilia and flagella associated protein 47),1,1.25,inactive
CFAP47 (cilia and flagella associated protein 47),1,0.88,inactive
CFAP47 (cilia and flagella associated protein 47),1,-0.3,inactive
CFAP47 (cilia and flagella associated protein 47),2,-0.26,inactive
CFAP47 (cilia and flagella associated protein 47),2,0.51,inactive
CFAP47 (cilia and flagella associated protein 47),2,0.15,inactive
CFAP47 (cilia and flagella associated protein 47),2,0.91,inactive
MOV10 (Mov10 RNA helicase),1,-1.6,active
MOV10 (Mov10 RNA helicase),1,-0.5,inactive
MOV10 (Mov10 RNA helicase),1,-0.89,inactive
MOV10 (Mov10 RNA helicase),1,-0.57,inactive
RNF217 (ring finger protein 217),1,-0.61,inactive
RNF217 (ring finger protein 217),1,0.08,inactive
RNF217 (ring finger protein 217),1,-0.37,inactive
RNF217 (ring finger protein 217),1,0.42,inactive
H2AC7 (H2A clustered histone 7),1,-0.09,inactive
H2AC7 (H2A clustered histone 7),1,0.51,inactive
H2AC7 (H2A clustered histone 7),1,0.92,inactive
H2AC7 (H2A clustered histone 7),1,-0.06,inactive
"NARS2 (asparaginyl-tRNA synthetase 2, mitochondrial)",1,-0.34,inactive
"NARS2 (asparaginyl-tRNA synthetase 2, mitochondrial)",1,0.15,inactive
"NARS2 (asparaginyl-tRNA synthetase 2, mitochondrial)",1,-0.55,inactive
"NARS2 (asparaginyl-tRNA synthetase 2, mitochondrial)",1,-0.36,inactive
"IWS1 (interacts with SUPT6H, CTD assembly factor 1)",1,-0.8,inactive
"IWS1 (interacts with SUPT6H, CTD assembly factor 1)",1,-0.91,inactive
"IWS1 (interacts with SUPT6H, CTD assembly factor 1)",1,-1.08,inactive
"IWS1 (interacts with SUPT6H, CTD assembly factor 1)",1,-0.48,inactive
TBX2 (T-box transcription factor 2),1,1.03,inactive
TBX2 (T-box transcription factor 2),1,3.1,active
TBX2 (T-box transcription factor 2),1,1.69,inactive
TBX2 (T-box transcription factor 2),1,-0.07,inactive
KCNQ5 (potassium voltage-gated channel subfamily Q member 5),1,-0.16,inactive
KCNQ5 (potassium voltage-gated channel subfamily Q member 5),1,-0.1,inactive
KCNQ5 (potassium voltage-gated channel subfamily Q member 5),1,-0.08,inactive
KCNQ5 (potassium voltage-gated channel subfamily Q member 5),1,0.23,inactive
BEX5 (brain expressed X-linked 5),1,-0.59,inactive
BEX5 (brain expressed X-linked 5),1,-0.09,inactive
BEX5 (brain expressed X-linked 5),1,0.3,inactive
BEX5 (brain expressed X-linked 5),1,-0.11,inactive
